Laboratory results: patent US20020138123A1, “Medical electrical leads and indwelling catheters with enhanced biocompatibility and biostability” (Medtronic, Inc., priority 1998, published 2002)

Tested on: human Mo/MØs
Settings: AS PEU specimens, Mo/MØs in presence of DSP 0.024 and 240 μg/ml, versus Mo/MØs in standard media

C[C@@H]1C[C@H]2[C@@H]3CCC4=CC(=O)C=C[C@]4(C)[C@@]3(F)[C@@H](O)C[C@]2(C)[C@@]1(O)C(=O)COP(=O)(O)O [DSP, dexamethasone sodium phosphate]
hydroperoxide concentration in polymer specimens: significantly lower hydroperoxide concentrations
